Test results: PMC11649789
Results are given in words; binding and its absence hold for the method and conditions named. In cells and extracts the contact can be indirect. A yes stands for co-enrichment or nearness to the bait. Other partners may have been found.

The chains behind the UniProt entries cited, without tags or fusion partners.
UniProt P05198: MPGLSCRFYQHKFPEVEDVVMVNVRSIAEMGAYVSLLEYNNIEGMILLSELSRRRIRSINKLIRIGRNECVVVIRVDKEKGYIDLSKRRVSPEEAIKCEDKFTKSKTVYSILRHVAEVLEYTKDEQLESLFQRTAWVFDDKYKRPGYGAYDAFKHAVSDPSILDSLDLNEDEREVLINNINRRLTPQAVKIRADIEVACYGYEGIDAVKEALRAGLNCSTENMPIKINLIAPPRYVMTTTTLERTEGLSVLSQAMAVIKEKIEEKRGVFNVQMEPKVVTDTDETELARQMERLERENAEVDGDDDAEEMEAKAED
UniProt P19525: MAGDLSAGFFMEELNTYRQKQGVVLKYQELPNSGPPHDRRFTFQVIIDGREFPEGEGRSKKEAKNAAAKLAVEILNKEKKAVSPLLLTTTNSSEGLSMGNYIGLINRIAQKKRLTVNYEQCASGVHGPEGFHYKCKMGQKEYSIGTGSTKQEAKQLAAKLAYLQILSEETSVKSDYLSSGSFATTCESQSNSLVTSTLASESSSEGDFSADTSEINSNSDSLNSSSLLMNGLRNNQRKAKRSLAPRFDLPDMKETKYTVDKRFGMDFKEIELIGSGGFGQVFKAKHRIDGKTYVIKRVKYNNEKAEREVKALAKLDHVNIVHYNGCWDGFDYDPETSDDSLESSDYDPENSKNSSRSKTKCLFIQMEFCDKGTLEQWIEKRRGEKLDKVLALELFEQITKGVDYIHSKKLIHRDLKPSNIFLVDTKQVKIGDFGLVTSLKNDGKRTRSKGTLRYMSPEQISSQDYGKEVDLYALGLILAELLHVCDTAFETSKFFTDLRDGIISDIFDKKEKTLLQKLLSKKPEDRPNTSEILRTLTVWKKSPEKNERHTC
UniProt O75340: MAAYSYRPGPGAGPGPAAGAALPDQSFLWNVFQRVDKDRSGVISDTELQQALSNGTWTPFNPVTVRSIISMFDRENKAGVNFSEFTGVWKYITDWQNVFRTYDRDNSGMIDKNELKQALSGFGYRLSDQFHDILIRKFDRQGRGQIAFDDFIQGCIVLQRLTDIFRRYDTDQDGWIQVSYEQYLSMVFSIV
UniProt Q9UQN3: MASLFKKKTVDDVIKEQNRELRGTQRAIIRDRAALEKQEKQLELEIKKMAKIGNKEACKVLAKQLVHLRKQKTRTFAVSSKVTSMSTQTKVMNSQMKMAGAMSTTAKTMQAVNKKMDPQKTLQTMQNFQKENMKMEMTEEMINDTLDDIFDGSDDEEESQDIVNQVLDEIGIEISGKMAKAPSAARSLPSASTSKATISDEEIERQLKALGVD
UniProt Q8WUM4: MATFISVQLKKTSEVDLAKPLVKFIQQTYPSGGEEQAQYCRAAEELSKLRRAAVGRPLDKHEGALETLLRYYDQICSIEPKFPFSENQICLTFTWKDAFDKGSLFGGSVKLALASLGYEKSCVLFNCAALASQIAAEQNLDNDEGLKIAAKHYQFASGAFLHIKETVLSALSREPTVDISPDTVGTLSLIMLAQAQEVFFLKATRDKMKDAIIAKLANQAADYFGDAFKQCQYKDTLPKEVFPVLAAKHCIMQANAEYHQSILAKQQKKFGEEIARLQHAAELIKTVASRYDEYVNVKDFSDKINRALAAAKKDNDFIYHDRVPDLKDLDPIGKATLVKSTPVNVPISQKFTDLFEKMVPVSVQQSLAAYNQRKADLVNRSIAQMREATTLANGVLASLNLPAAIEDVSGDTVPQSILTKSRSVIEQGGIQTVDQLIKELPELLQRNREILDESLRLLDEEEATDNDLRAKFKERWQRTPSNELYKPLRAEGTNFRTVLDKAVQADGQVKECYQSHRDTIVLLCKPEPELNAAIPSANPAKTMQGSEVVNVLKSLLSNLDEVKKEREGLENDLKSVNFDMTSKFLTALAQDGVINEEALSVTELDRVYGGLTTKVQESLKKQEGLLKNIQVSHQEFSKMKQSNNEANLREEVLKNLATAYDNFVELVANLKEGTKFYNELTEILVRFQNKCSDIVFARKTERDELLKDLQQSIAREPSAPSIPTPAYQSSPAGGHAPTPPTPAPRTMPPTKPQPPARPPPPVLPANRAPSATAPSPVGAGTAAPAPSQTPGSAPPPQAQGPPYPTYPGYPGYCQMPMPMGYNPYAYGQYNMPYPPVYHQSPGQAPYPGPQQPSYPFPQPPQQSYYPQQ

target: APEX2-eIF2α (UniProt P05198); experiment: proximity labelling; APEX2-eIF2α in HEK293T cells, control or 1 mM LLOMe for 1 h; biotin-phenol, 1 min pulse of 1 mM H2O2; streptavidin beads, LC/MS/MS DIA; three independent experiments

Molecule | binding
PKR (Protein Kinase R), endogenous (from UniProt P19525 1-551) | binds
ALG2 (Apoptosis-Linked Gene-2), endogenous (from UniProt O75340 1-191) | binds
CHMP2B, endogenous (from UniProt Q9UQN3 1-213) | binds
ALIX (ALG-2-Interacting Protein X), endogenous (from UniProt Q8WUM4 1-868) | binds

target: APEX2-eIF2α (UniProt P05198); experiment: as above; remark: another data set of the same source

Molecule | binding
PACT, protein activator of PKR, endogenous (protein, UniProt O75569 1-313) MSQSRHRAEAPPLEREDSGTFSLGKMITAKPGKTPIQVLHEYGMKTKNIPVYECERSDVQIHVPTFTFRVTVGDITCTGEGTSKKLAKHRAAEAAINILKANASICFAVPDPLMPDPSKQPKNQLNPIGSLQELAIHHGWRLPEYTLSQEGGPAHKREYTTICRLESFMETGKGASKKQAKRNAAEKFLAKFSNISPENHISLTNVVGHSLGCTWHSLRNSPGEKINLLKRSLLSIPNTDYIQLLSEIAKEQGFNITYLDIDELSANGQYQCLAELSTSPITVCHGSGISCGNAQSDAAHNALQYLKIIAERK | binds
CHMP4B, endogenous (protein, UniProt Q9H444 1-224) MSVFGKLFGAGGGKAGKGGPTPQEAIQRLRDTEEMLSKKQEFLEKKIEQELTAAKKHGTKNKRAALQALKRKKRYEKQLAQIDGTLSTIEFQREALENANTNTEVLKNMGYAAKAMKAAHDNMDIDKVDELMQDIADQQELAEEISTAISKPVGFGEEFDEDELMAELEELEQEELDKNLLEISGPETVPLPNVPSIALPSKPAKKKEEEDDDMKELENWAGSM | binds
